The results are deposited in PubChem (AID1347168; NCATS, 2019).

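HepG2 liver cancer cells dosed for roughly 24-48 h, with viability measured as ATP-based luminescence, as a cytotoxicity counter-screen for Zika inhibitors. Compounds were titrated from about 0.029 µM up to 57 µM, mostly reaching 45.9 µM. The value is the fitted concentration giving half of the maximal cytotoxic effect; a lower number means stronger toxicity. Calls follow NCATS curve-class scoring: actives score 40-100 and inconclusives 1-39, based on curve class, fitted AC50 and effect size.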

Values are in µM. Every entry below has the call inconclusive. Only part of the assay is shown, chiefly results filed as inconclusive. A potency from a partial, single-point or poor curve is only a rough figure. Some entries filed as inconclusive have a full curve. Activity scores are not listed here.

Compound	Potency (µM)	remark
CCOC(=O)Cn1cccc1-c1nc(-c2ccc(OC)cc2)c(-c2ccc(OC)cc2)s1	37.02	cytotoxic, partial curve, poor fit
C[C@H]1O[C@@H](O[C@H]2[C@@H](O)C[C@@H](O[C@H]3[C@@H](O)C[C@H](O[C@H]4CC[C@@]5(C)[C@H](CC[C@@H]6[C@@H]5CC[C@]5(C)[C@@H](C7=CC(=O)OC7)CC[C@]65O)C4)O[C@@H]3C)O[C@@H]2C)C[C@H](O)[C@@H]1O	0.1201	cytotoxic, full curve, poor fit
CCn1cc(-c2ccnc3[nH]c(-c4cccc(CN(C)C)c4)cc23)c(-c2ccc(NC(=O)N(C)C)cc2)n1	20.76	cytotoxic, partial curve
C[C@@H]1O[C@@H](O[C@H]2C[C@@H](O)[C@]3(CO)C4C(CC[C@]3(O)C2)[C@@]2(O)CC[C@H](C3=CC(=O)OC3)[C@@]2(C)C[C@H]4O)[C@H](O)[C@H](O)[C@H]1O (stereo partly shown)	0.0466	cytotoxic, full curve, poor fit
CCCCCCCC/C=C\CCCCCCCC(=O)NCCc1ccc(O)c(O)c1	32.91	cytotoxic, single point
CCc1oc2ccccc2c1C(=O)c1cc(Br)c(O)c(Br)c1	26.21	cytotoxic, partial curve, poor fit
CC1O[C@@H](O[C@@H]2C(O)C[C@H](O[C@@H]3C(O)C[C@@H](OC4CC[C@@]5(C)C6CC[C@]7(C)C(C8=CC(=O)OC8)CC[C@@]7(O)C6CC[C@@H]5C4)OC3C)OC2C)CC(O)[C@H]1O (stereo partly shown)	0.1474	cytotoxic, full curve
Cc1cc(CN2CCN(c3c(Br)cnc4nc(-c5ccc(N6CCN(C)CC6)cc5)[nH]c34)CC2)no1	36.92	cytotoxic, single point
CS(=O)(=O)c1ccc(-c2cn3ccccc3n2)cc1	16.49	cytotoxic, partial curve
COc1c(C)c2c(c(O)c1C/C=C(\C)CCC(=O)OCCN1CCOCC1)C(=O)OC2	5.229	cytotoxic, partial curve, poor fit